Results are given in words; binding and its absence hold for the method and conditions named.

Chains of the proteins cited; added tags and fusions are not shown. Lines headed by an entry give the natural chain unless they say otherwise; changes in a name come on top.
UniProt O14931: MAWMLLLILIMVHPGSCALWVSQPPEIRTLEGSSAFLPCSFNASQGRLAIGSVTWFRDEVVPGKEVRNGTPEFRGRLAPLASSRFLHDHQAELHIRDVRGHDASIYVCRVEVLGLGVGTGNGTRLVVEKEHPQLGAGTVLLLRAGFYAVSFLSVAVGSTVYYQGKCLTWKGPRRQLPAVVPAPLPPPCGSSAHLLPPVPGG

This is an account of results in US20240287177A1 (Merck KGaA, published 2024).

This assay concerns the target recombinant human NKp30 extracellular domain, his-tagged (human) (UniProt O14931). Put plainly: BLI as in Example 1.

B1: VHH1.10 (humanized) (VHH)
VHH: EVQLVESGGGVVQPGGSLRLSCAASGFTLDDYTIGWVRQAPGKGLEWVSCFSPSDGTTYYADSVKGRFTISRDNAKNTLYLQMNSLRAEDTAVYYCAASFADGSSWCYDYWGQGTLVTVSS
Regarding B1, the binding entry is on record as “no binding (tested: ≤100 nM)”.
